This is one part of the list.
Assays:
Assay in all cases: log2 fold change, soluble protein after heating vs DMSO (PISA); higher = thermal stabilisation; K562 lysate, 10 uM; active = over 0.2 and 3.5 SD of the protein, either way, in both replicates (recomputed)
[1] = compound: NCC(=O)Nc1ccc(-n2nc(C(F)(F)F)cc2-c2ccc3c(ccc4ccccc43)c2)cc1
Outline: (§1)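 K562 pellets were dounce-homogenised in PBS pH 7.4 containing 1 mM MgCl2, and the crude extract, at 1 mg/mL protein, was exposed to 10 μM compound for 30 min. Aliquots were heated for 3 min across 48°C-58°C, pooled, brought to 0.5% NP-40 at 4°C and spun at 21,000xg for 90 min, with the supernatant taken as soluble protein. TMTpro 16plex LC-MS/MS with equalised channel sums quantified that protein. Values are log-two fold changes in thermal stability relative to solvent controls, taken from duplicates.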

Protein sequences, listed by entry. Tags and fused reporters are not part of them. Lines headed by an entry give the natural chain unless they say otherwise; changes in a name come on top.
UniProt Q96EX1: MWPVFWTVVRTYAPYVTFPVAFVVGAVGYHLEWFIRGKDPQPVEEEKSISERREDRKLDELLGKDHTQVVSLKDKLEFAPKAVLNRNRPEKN
UniProt P09234, whole entry, looked up: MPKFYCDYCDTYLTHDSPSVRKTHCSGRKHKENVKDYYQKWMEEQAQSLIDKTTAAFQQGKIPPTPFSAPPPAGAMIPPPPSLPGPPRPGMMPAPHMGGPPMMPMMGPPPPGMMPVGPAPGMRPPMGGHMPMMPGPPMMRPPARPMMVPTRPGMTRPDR
UniProt P35711: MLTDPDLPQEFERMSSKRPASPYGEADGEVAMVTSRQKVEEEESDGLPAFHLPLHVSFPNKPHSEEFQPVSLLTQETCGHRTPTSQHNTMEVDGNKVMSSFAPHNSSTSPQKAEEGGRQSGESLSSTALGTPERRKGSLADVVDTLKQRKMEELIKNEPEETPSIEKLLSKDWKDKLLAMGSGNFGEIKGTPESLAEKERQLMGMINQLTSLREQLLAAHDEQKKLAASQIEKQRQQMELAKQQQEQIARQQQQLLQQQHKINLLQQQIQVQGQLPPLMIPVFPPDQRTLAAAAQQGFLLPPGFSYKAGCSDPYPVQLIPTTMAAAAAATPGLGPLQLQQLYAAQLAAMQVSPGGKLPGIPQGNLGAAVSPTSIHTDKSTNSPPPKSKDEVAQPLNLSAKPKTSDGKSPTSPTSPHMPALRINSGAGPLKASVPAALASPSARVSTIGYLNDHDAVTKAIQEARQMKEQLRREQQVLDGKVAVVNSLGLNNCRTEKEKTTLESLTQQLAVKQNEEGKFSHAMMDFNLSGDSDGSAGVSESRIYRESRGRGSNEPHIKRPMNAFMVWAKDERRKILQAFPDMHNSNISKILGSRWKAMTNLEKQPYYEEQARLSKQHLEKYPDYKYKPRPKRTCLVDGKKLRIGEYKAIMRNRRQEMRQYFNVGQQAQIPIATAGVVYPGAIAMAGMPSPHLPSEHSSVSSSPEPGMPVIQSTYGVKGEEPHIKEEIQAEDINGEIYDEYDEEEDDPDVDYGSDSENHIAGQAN
UniProt Q9H4L7: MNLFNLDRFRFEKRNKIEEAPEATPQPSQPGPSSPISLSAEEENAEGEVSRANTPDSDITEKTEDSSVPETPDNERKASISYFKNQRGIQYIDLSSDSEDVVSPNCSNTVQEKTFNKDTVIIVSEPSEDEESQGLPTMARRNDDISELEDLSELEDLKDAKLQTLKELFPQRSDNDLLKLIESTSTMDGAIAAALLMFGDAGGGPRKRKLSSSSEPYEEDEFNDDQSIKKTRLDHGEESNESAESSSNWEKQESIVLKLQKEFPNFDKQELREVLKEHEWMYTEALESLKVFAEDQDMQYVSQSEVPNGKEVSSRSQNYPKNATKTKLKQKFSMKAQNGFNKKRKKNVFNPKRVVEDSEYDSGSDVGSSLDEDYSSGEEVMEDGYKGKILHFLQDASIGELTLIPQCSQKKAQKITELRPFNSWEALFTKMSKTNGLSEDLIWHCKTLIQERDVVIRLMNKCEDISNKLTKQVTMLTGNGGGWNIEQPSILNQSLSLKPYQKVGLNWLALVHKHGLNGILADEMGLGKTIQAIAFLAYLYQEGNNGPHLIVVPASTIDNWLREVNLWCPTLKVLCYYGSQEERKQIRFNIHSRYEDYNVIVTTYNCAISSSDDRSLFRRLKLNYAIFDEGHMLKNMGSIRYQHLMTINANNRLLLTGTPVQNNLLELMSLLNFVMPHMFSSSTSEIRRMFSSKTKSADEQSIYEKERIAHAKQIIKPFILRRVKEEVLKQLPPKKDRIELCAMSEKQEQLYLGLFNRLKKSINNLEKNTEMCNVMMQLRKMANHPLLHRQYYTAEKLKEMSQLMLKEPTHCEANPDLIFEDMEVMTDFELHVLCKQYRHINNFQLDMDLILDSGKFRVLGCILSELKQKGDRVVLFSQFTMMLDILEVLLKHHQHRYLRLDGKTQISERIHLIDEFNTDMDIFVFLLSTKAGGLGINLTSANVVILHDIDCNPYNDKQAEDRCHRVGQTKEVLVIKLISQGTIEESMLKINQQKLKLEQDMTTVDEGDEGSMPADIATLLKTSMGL
UniProt Q7Z3B0: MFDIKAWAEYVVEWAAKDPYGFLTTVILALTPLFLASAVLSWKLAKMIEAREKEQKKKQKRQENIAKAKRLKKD
UniProt O00161: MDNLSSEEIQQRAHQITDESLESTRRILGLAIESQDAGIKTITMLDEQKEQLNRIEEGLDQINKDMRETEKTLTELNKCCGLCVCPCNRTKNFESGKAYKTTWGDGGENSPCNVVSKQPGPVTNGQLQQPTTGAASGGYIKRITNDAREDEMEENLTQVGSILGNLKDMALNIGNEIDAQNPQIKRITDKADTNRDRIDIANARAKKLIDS
UniProt Q02446, whole entry, looked up: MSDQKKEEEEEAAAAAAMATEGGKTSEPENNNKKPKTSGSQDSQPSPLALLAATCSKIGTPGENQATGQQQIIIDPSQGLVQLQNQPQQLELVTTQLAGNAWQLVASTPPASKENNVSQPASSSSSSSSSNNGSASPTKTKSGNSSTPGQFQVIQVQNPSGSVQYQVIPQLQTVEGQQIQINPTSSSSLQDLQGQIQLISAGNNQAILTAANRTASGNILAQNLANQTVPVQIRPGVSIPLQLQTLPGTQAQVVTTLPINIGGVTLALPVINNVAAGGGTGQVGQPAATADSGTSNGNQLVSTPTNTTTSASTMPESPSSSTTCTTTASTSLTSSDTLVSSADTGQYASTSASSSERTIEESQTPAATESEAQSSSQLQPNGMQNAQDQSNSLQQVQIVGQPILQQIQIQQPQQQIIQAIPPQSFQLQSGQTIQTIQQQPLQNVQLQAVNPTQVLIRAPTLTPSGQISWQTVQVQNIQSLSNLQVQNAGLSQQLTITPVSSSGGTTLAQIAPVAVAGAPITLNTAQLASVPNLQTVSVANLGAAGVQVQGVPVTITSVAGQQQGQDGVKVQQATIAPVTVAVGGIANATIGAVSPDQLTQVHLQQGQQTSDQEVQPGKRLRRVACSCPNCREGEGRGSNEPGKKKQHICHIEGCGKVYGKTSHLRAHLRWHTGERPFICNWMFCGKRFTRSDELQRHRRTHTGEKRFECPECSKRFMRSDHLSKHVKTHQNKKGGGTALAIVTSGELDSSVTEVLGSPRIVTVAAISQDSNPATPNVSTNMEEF
UniProt Q92922, whole entry, looked up: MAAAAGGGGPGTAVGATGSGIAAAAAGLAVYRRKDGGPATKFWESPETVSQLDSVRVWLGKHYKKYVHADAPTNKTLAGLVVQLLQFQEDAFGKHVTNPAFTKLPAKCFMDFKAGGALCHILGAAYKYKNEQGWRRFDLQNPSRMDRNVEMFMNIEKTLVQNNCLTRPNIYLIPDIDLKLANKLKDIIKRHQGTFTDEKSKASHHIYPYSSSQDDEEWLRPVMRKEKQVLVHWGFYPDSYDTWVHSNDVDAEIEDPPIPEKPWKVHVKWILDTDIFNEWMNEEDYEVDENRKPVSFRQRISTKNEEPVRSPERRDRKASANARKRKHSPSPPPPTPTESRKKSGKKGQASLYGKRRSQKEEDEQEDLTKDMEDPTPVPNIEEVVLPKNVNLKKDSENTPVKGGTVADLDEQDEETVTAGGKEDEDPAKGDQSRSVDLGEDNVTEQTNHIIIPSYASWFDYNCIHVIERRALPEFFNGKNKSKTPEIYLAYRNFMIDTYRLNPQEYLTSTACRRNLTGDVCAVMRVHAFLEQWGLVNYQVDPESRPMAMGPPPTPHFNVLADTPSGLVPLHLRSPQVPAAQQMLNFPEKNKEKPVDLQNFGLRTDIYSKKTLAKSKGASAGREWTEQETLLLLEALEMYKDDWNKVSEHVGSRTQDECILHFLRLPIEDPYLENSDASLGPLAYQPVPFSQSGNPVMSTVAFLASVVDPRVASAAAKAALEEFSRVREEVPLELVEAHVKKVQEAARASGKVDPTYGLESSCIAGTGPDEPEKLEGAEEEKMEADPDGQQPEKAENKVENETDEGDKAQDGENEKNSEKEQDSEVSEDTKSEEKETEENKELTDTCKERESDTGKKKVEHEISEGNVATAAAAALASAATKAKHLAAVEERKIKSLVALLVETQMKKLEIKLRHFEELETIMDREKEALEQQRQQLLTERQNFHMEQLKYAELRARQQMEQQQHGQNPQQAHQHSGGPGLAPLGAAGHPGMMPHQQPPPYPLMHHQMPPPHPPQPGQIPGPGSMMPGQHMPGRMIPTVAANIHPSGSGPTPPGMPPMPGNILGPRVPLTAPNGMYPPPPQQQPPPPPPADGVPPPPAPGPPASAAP
UniProt P08579, whole entry, looked up: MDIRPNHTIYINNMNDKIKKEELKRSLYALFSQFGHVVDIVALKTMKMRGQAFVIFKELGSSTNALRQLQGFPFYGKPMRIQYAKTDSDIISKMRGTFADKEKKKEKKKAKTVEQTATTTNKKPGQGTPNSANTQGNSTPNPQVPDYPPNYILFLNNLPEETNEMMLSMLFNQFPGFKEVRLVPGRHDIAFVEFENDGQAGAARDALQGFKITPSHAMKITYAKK
UniProt O60749: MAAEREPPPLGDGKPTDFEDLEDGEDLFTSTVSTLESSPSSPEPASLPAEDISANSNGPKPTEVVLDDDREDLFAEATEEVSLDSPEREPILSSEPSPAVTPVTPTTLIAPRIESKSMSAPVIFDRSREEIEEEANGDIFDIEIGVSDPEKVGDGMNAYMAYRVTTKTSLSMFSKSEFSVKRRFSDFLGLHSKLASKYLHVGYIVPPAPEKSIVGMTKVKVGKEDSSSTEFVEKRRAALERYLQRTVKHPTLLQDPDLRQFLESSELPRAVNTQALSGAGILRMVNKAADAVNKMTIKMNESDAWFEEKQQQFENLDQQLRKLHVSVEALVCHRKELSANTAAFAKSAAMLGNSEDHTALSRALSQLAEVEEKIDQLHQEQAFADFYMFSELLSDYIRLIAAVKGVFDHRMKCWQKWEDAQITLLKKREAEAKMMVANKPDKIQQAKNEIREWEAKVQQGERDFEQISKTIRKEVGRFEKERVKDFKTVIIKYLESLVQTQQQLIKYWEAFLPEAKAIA
UniProt Q13424: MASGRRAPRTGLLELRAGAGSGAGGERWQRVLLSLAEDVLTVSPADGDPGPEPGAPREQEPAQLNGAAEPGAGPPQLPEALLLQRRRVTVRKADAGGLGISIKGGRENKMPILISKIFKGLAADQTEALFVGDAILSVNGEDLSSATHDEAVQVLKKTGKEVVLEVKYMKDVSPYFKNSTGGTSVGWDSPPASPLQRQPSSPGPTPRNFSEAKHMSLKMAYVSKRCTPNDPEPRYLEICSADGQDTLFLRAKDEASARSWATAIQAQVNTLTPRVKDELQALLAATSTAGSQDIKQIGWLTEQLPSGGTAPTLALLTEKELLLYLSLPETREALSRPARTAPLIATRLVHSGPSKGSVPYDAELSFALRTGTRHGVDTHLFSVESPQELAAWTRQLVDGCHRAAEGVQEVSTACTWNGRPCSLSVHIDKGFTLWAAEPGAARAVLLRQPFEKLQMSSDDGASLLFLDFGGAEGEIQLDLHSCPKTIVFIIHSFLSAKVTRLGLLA
UniProt Q13596, whole entry, looked up: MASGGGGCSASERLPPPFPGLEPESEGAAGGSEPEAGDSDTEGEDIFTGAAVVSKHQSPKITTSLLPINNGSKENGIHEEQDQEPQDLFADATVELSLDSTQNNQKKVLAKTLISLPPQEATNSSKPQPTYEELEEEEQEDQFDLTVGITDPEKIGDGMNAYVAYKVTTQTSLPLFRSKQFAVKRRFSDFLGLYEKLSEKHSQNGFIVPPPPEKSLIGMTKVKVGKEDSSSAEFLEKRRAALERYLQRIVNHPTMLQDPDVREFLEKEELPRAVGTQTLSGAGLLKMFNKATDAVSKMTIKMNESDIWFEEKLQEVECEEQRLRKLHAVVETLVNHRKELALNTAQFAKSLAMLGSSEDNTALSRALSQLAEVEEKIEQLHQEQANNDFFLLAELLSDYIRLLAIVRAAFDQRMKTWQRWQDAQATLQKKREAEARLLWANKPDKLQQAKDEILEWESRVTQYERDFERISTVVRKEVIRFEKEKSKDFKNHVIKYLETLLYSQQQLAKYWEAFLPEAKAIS
UniProt P62308, whole entry, looked up: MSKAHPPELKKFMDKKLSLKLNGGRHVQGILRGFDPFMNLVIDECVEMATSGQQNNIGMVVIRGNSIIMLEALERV
UniProt Q5VWJ9: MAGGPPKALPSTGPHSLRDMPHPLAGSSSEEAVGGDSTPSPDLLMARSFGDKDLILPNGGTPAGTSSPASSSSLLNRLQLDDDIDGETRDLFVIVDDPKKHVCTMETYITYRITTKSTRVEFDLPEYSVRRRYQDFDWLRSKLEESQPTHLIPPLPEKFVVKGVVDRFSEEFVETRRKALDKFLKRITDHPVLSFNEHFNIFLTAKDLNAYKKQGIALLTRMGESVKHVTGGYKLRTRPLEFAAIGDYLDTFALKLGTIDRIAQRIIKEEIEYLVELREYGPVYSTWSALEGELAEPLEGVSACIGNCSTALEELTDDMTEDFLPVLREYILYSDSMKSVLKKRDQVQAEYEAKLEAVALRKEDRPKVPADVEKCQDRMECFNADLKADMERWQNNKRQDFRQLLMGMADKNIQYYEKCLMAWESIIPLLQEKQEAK
UniProt P0DJ93: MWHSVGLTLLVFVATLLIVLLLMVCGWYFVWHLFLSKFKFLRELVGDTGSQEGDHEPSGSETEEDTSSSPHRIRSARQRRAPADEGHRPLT

vorinostat = compound: O=C(CCCCCCC(=O)Nc1ccccc1)NO [vorinostat]
Outline: as §1

silmitasertib = compound: O=C(O)c1ccc2c(c1)nc(Nc1cccc(Cl)c1)c1ccncc12 [silmitasertib]
Outline: as §1

[2] = compound: O=C1NC(=O)C(c2cnc3ccccn23)=C1c1cn2c3c(cc(F)cc13)CN(C(=O)N1CCCCC1)CC2
Outline: as §1

entospletinib = compound: c1cn2cc(-c3ccc4cn[nH]c4c3)nc(Nc3ccc(N4CCOCC4)cc3)c2n1 [entospletinib]
Outline: as §1

| Target | log2 fold change [1] | log2 fold change (vorinostat) | log2 fold change (silmitasertib) | log2 fold change [2] | log2 fold change (entospletinib) |
| --- | --- | --- | --- | --- | --- |
| SMIM12 (UniProt Q96EX1) | inactive: -0.044 | inactive: 0.174 | inactive: -0.003 | inactive: -0.025 | inactive: -0.058 |
| SNRPC (UniProt P09234) | inactive: -0.007 | inactive: 0.085 | inactive: -0.046 | inactive: 0.013 | inactive: -0.072 |
| SNX12 isoform 1 (UniProt Q9UMY4) | inactive: 0.017 | inactive: 0.046 | inactive: 0.009 | inactive: 0 | inactive: 0.01 |
| SOX5 (UniProt P35711) | inactive: -0.036 | inactive: -0.014 | inactive: 0.099 | inactive: -0.027 | inactive: -0.083 |
| SMARCAD1 isoform 2 (UniProt Q9H4L7) | inactive: -0.005 | active: -0.27 | inactive: 0.012 | inactive: 0.014 | inactive: 0.013 |
| SMIM15 (UniProt Q7Z3B0) | inactive: -0.041 | inactive: 0.18 | inactive: -0.061 | inactive: -0.061 | inactive: 0.045 |
| SMYD3 (UniProt Q9H7B4) | inactive: 0.044 | active: -0.202 | inactive: 0.029 | inactive: -0.003 | inactive: -0.008 |
| SPARC (UniProt P09486) | inactive: -0.003 | inactive: 0.149 | inactive: -0.051 | inactive: 0.018 | inactive: -0.063 |
| SNAP23 (UniProt O00161) | inactive: -0.017 | inactive: 0.052 | inactive: -0.067 | inactive: -0.016 | inactive: 0.004 |
| SNRNP48 (UniProt Q6IEG0) | inactive: -0.13 | inactive: 0.022 | inactive: -0.095 | inactive: 0.045 | inactive: 0.127 |
| SMCHD1 (UniProt A6NHR9) | inactive: 0 | inactive: -0.149 | inactive: 0.02 | inactive: 0.02 | inactive: 0.007 |
| SOD1 (UniProt P00441) | inactive: -0.038 | inactive: 0.092 | inactive: -0.024 | inactive: -0.105 | inactive: -0.049 |
| SMN1 (UniProt Q16637) | inactive: -0.014 | active: -0.278 | inactive: 0.035 | inactive: 0.052 | inactive: -0.024 |
| SP4 (UniProt Q02446) | inactive: 0.059 | inactive: 0.234 | inactive: -0.133 | inactive: -0.043 | inactive: -0.028 |
| SPAG5 (UniProt Q96R06) | inactive: 0.038 | active: -0.298 | inactive: 0.042 | inactive: -0.007 | inactive: 0.008 |
| SMARCC1 (UniProt Q92922) | inactive: 0.012 | inactive: -0.117 | inactive: -0.008 | inactive: 0.017 | inactive: -0.014 |
| SMARCA4 (UniProt P51532) | inactive: 0.015 | active: -0.246 | inactive: 0.021 | inactive: -0.028 | inactive: -0.008 |
| SNRPB2 (UniProt P08579) | inactive: -0.014 | inactive: 0.12 | inactive: -0.014 | inactive: -0.019 | inactive: -0.022 |
| SNUPN (UniProt O95149) | inactive: -0.076 | inactive: -0.037 | inactive: 0.142 | inactive: -0.043 | inactive: -0.066 |
| SNX27 (UniProt Q96L92) | inactive: -0.015 | inactive: -0.152 | inactive: 0.022 | inactive: 0.029 | inactive: 0.012 |
| SMC1B isoform 3 (UniProt Q8NDV3) | inactive: -0.063 | inactive: 0.068 | inactive: -0.011 | inactive: 0.026 | inactive: 0.004 |
| SNAPIN (UniProt O95295) | inactive: -0.018 | inactive: 0.032 | inactive: -0.014 | inactive: 0.006 | inactive: -0.057 |
| SNX2 isoform 2 (UniProt O60749) | inactive: 0.311 | inactive: 0.069 | inactive: 0 | inactive: 0.224 | inactive: 0.052 |
| SNX6, A0A0A0MRI2 | inactive: -0.005 | active: -0.325 | inactive: 0.018 | inactive: 0.015 | inactive: 0.003 |

An excerpt from above, reduced to log2 fold change (silmitasertib).
Target | log2 fold change (silmitasertib)
SPARC (UniProt P09486) | inactive: -0.051
SNAP23 (UniProt O00161) | inactive: -0.067

More records

| Target | log2 fold change [1] | log2 fold change (vorinostat) | log2 fold change (silmitasertib) | log2 fold change [2] | log2 fold change (entospletinib) |
| --- | --- | --- | --- | --- | --- |
| SMUG1 (UniProt Q53HV7) | inactive: -0.004 | inactive: -0.191 | inactive: -0.001 |  | inactive: -0.004 |
| SP6 (UniProt Q3SY56) | inactive: -0.095 | inactive: 0.044 | inactive: -0.099 | inactive: -0.061 | inactive: -0.031 |
| SOS1 (UniProt Q07889) | inactive: 0.044 | inactive: -0.057 | inactive: -0.096 | inactive: 0.034 | inactive: 0 |
| SMARCB1 (UniProt Q12824) | inactive: -0.001 | inactive: -0.225 | inactive: 0.067 | inactive: -0.039 | inactive: 0.016 |
| SNX2 (UniProt O60749) | inactive: -0.003 | inactive: -0.088 | inactive: 0.007 | inactive: 0.006 | inactive: 0.001 |
| SMARCE1 (UniProt Q969G3) | inactive: 0.01 | inactive: 0.007 | inactive: 0.019 | inactive: -0.066 | inactive: 0 |
| SMG9 (UniProt Q9H0W8) | inactive: -0.03 | inactive: -0.089 | inactive: -0.011 | inactive: 0 | inactive: -0.069 |
| SOAT1 (UniProt P35610) | inactive: 0.014 | inactive: 0.005 | inactive: 0 | inactive: -0.037 | inactive: 0.015 |
| SNAP23 isoform 2 (UniProt O00161) | inactive: 0.146 | active: -0.85 | inactive: -0.028 |  | inactive: -0.329 |
| SMARCD2 (UniProt Q92925) | inactive: 0.008 | inactive: -0.133 | inactive: 0.032 | inactive: 0.019 | inactive: -0.01 |
| SNTA1 (UniProt Q13424) | inactive: -0.043 | inactive: 0.051 | inactive: 0.029 | inactive: -0.035 | inactive: 0.018 |
| SNX1 (UniProt Q13596) | inactive: 0.008 | inactive: -0.06 | inactive: 0.012 | inactive: -0.018 | inactive: 0.009 |
| SOX6 (UniProt P35712) | inactive: -0.287 | inactive: 0.125 | inactive: 0.036 | inactive: -0.016 | inactive: -0.017 |
| SNRPG (UniProt P62308) | inactive: 0.007 | inactive: 0.14 | inactive: -0.039 | inactive: 0.021 | inactive: -0.001 |
| SMU1 isoform 2 (UniProt Q2TAY7) | inactive: 0.25 | inactive: -0.063 | inactive: 0.022 |  | inactive: 0.074 |
| SNRPC (UniProt Q5TAL2) | inactive: 0.068 | inactive: 0.14 | inactive: -0.047 | inactive: 0.083 | inactive: -0.055 |
| SNRPD1 (UniProt P62314) | inactive: 0.027 | inactive: 0.162 | inactive: -0.076 | inactive: 0.047 | inactive: -0.022 |
| SNX30 (UniProt Q5VWJ9) |  | inactive: 0.087 | inactive: 0.016 | inactive: -0.149 |  |
| SMIM1 (UniProt B2RUZ4) |  | inactive: 0.177 | inactive: -0.076 | inactive: 0.12 | inactive: 0.042 |
| SMIM13 (UniProt P0DJ93) |  | inactive: 0.205 | inactive: -0.041 | inactive: -0.015 |  |
| SNAPC1 (UniProt Q16533) |  |  |  | inactive: 0.083 |  |
| SOHLH2 isoform 3 (UniProt Q9NX45) |  | inactive: 0.041 | inactive: -0.122 | inactive: -0.103 | inactive: -0.016 |
| SNX25 (UniProt Q9H3E2) |  | inactive: -0.178 | inactive: 0.013 | inactive: -0.054 | inactive: -0.001 |
| SOX11 (UniProt P35716) | inactive: 0.007 |  |  | inactive: 0.158 |  |

Quoted from the listing:
In log2 fold change (silmitasertib), SNX12 isoform 1 (UniProt Q9UMY4) has the entry inactive: 0.009
In log2 fold change (vorinostat), SMC1B isoform 3 (UniProt Q8NDV3) has the entry inactive: 0.068
